Assay results reported in patent publication US10265329B2, “Altering steroid metabolism for treatment of steroid-dependent disease” (THE CLEVELAND CLINIC FOUNDATION, priority 2015, dated 2019).
Numbering of substitutions follows the chain as printed. For at least one compound, name, drawing or mass did not settle the structure.

Columns and labels:
mutant AR (LNCaP) = target: T1, mutant AR (LNCaP) (Homo sapiens, UniProt P10275, T878A); experiment: AR competition assay with [3H]-R1881 in LNCaP cells; format: binding; settings: 30 min
T1 construct: endogenous in cells; host or cells: LNCaP
T1 sequence (P10275 1-920 T878A): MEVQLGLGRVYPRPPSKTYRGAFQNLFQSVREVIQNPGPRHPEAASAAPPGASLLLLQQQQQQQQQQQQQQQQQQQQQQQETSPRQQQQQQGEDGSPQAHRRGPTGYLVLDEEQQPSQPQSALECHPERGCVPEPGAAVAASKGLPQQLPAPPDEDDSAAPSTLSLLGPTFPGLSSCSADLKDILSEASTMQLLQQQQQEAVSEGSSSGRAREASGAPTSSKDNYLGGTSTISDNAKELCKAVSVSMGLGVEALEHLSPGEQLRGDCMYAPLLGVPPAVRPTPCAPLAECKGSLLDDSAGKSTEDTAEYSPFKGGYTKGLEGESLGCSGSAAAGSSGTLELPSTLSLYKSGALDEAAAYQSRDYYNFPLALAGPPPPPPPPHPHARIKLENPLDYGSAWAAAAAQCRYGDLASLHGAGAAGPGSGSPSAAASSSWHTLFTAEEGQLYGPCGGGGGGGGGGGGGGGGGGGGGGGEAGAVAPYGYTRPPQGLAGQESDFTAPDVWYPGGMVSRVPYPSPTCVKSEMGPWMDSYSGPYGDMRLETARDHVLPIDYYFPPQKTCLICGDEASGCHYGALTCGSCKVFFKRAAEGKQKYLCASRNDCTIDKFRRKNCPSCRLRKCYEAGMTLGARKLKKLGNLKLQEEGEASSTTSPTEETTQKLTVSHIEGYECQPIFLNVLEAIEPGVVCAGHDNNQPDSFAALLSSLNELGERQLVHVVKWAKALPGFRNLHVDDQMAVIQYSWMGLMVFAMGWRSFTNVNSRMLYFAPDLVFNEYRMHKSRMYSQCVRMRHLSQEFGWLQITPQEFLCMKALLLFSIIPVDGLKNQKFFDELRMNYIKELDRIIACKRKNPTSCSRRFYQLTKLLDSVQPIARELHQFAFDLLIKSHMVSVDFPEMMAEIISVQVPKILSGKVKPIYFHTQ
Protocol: (§1) Cells were cultured in serum-free medium for 48 h and then treated with [^3H]-R1881 and the indicated concentrations of D4A, Abi, enzalutamide, R1881 or bicalutamide for 30 min. Cells were washed with 1×PBS 4 times and 0.9% NaCl solution twice before lysis with RIPA buffer.
(§2) Cells were starved with phenol red-free and serum free-medium for at least 48 h and then treated with [^3H]-R1881 and the indicated concentrations of drugs for 30 min. Cells were washed thoroughly with PBS and then lysed with […].

wild-type AR (LAPC4) = target: T2, wild-type AR (LAPC4) (Homo sapiens, UniProt P10275); experiment: AR competition assay with [3H]-R1881 in LAPC4 cells; format: binding; settings: 30 min
T2 construct: endogenous in cells; host or cells: LAPC4
T2 sequence (P10275 1-920): T1 sequence (P10275 1-920 T878A) with A878T
Protocol: as §1, §2

SRD5A = target: T3, SRD5A (Homo sapiens, UniProt P18405); experiment: Conversion of [3H]-AD to 5α-reduced androgens in LAPC4 cells; format: cell-based; settings: up to 100 μM
T3 construct: endogenous in cells; host or cells: LAPC4
T3 sequence (P18405 1-259): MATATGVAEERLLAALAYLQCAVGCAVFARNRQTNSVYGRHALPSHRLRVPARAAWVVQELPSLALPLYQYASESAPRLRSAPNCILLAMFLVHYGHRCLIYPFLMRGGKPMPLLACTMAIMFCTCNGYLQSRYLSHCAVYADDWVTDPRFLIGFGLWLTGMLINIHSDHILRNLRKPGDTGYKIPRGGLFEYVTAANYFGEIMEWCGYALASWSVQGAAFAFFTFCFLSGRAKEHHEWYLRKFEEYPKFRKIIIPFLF
Protocol: Cell Line Metabolism: Cells were seeded and incubated in 12-well plates with 0.2 million cells/well for ˜24 h and then incubated with a mixture of radioactive ([^3H]-labeled) and non-radioactive androgens (final concentration, 100 nM; ˜1,000,000 cpm/well; PerkinElmer, Waltham, Mass.) at 37° C. Aliquots of medium were collected at the indicated times. Collected medium was treated with 1,000 units of β-glucuronidase (Helix pomatia; Sigma-Aldrich) at 65° C. for 2 h, extracted with 860 μL ethyl acetate:isooctane (1:1), and concentrated under nitrogen gas. Xenograft Metabolism: 10^7 LNCaP or VCaP cells were injected subcutaneously with Matrigel into surgically orchiectomized NSG mice that were implanted with 5 mg 90-day sustained-release DHEA pellets (Innovative Research of American, Sarasota, Fla.). […] Each xenograft was analyzed in triplicate in at least three independent experiments. […]
Dried samples were reconstituted in 50% methanol and injected into the HPLC. […] Alternatively, dried samples were applied to plastic-backed silica gel plates and separated by thin-layer chromatography (TLC) using a mobile phase of 3:1 chloroform:ethyl acetate, followed by exposure of the plates to a phosphorimager screen and quantitated with a Storm model 860 phosphorimager (Applied Biosystems, Foster City, Calif.). […]

C[C@]12CC[C@H](O)CC1=CC[C@@H]1[C@@H]2CC[C@]2(C)C(c3cccnc3)=CC[C@@H]12 [Abi, Abiraterone, reference compound]
affinity for T877A mutant AR (mutant AR (LNCaP)): lower
affinity for wild-type AR (wild-type AR (LAPC4)): lower
effect on conversion from AD to 5α-reduced androgens (SRD5A): no detectable effect
